According to patent EP0411567A1, “5-(omega-Aminoacyl)-5,10-dihydro-11H-dibenzo[b,e][1,4]-diazepin-11-ones, processes for their preparation, and their use as medicaments” (ARZNEIMITTELWERK DRESDEN GmbH, priority 1989, dated 1991):

Tested on: Wistarratten
Assay: Orienting determination of acute toxicity in rats, i.v.
Assay type: in vivo, Ratte
Conditions: therapeutic breadth; rat LD₅₀ i.v. / rat CaCl₂-arrhythmia ED₅₀
Description: Die Verbindungen der allgemeinen Formeln I, VII bzw. X zeigen bei intravenöser Anwendung an Ratten eine bessere Verträglichkeit als ihre Referenzpräparate.
ED₅₀ i.v. = Dosis in mg/kg, welche die fibrillatorische Wirkung von CaCl₂ an Ratten nach I.v.-Applikation der Testsubstanz um 50 % unterdrückt. Berechnung nach der Probit-Regressionsanalyse mit Vertrauensbereich, p = 0,05 (Werte in Klammern) LD₅₀ i.v. = Letale Dosis in mg/kg bei 50 % der Versuchstiere einer orientierenden Bestimmung der akuten Toxizität an Wistarratten hauseigener Zucht, I.v.-Applikation in die Schwanzvene, 3 - 4 Dosierungen zu je 10 Tieren.
Berechnung nach der Probit-Regressionsanalyse mit Vertrauensbereich, p = 0,05 (Werte in Klammern) [formula] zur Ermittlung der therapeutischen Breite eff. Dosis = effektive Dosis in mg/kg Wirkungsdauer = Wirkungsdauer in Minuten an Hunden, 24 h nach zweistufiger Koronarligatur

SMILES: CCN(CC)CC(=O)Nc1c(C)cccc1C [Lidocain, reference compound]
- Q LD₅₀/ED₅₀: 5,8
